PubChem BioAssay AID504793 | Drosophila RNAi Screening Center | 2011

- Assay: 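Whole-genome screen for parts of the DNA damage checkpoint at G2/M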 (primary screen)
- Cell system: Drosophila S2R+ cells
- Reagents: long dsRNA against Drosophila genes, about 0.25 µg dsRNA per well
- Duration: 4 days of dsRNA, then 4 hours of drug before read-out
- Challenge: doxorubicin 0.5 µM for 4 hours to cause double-strand breaks, in cells also given a low, harmless dose of dsRNA against nbs to sensitise the assay
- Detection: 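Per-well count of mitotic cells stained for phospho-histone H3 after doxorubicin exposure, used as mitotic index; counts are raw and not normalised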
- Scale: mitotic cells: higher = more cells in mitosis, weaker G2 arrest
- Call rule: 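Genes are called active only when high mitotic counts were reproduced with independent dsRNAs and mitosis was checked for delay without damage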
- Calls: active = confirmed in follow-up tests; inactive = not confirmed
The screen tested about 23,000 reagents; this is an unselected part of those that have a named target and a result. Of all reagents, 62 (0.27%) are marked active. 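Calls come from follow-up tests whose scores are not deposited, so confirmed genes may have low counts here; counts are not normalised per plate.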 The raw values are shown without normalisation. A plus sign joins genes that one reagent is predicted to hit.

mitotic cells, replicate 1 | call | Gene | DRSC id
7 | inactive | Swim (GeneID 37537) | DRSC04334
9 | inactive | CG13643 (GeneID 50074) | DRSC14641
9 | inactive | CG13643 (GeneID 50074) | DRSC14642
10 | inactive | CG13643 (GeneID 50074) | DRSC28349
7 | inactive | CG31221 (GeneID 42325) | DRSC14335
8 | inactive | CG31221 (GeneID 42325) | DRSC16217
8 | inactive | CG31221 (GeneID 42325) | DRSC23748
2 | inactive | Rbbp5 (GeneID 40239) | DRSC11778
15 | inactive | Socs16D (GeneID 32760) | DRSC23165
9 | inactive | Socs16D (GeneID 32760) | DRSC26838
2 | inactive | CG11309 (GeneID 40356) | DRSC11650
8 | inactive | CG11309 (GeneID 40356) | DRSC28126
6 | inactive | CG10357 (GeneID 38435) | DRSC08155
5 | inactive | Uhg4 + snoRNA:Psi28S-2949 | DRSC36561
5 | inactive | CG8128 (GeneID 32504) | DRSC20084
6 | inactive | gsb (GeneID 38005) | DRSC04692
8 | inactive | gsb (GeneID 38005) | DRSC25821
2 | inactive | CROT (GeneID 43332) | DRSC14518
5 | inactive | CROT (GeneID 43332) | DRSC14519
6 | inactive | CROT (GeneID 43332) | DRSC27733
12 | inactive | CSN8 (GeneID 49077) | DRSC02257
10 | inactive | mRRF2 (GeneID 42670) | DRSC16143
7 | inactive | Uro (GeneID 34060) | DRSC03469
8 | inactive | Phm (GeneID 37823) | DRSC04639
10 | inactive | polo (GeneID 40232) | DRSC11384
575 | inactive | polo (GeneID 40232) | DRSC22359
5 | inactive | betaggt-I (GeneID 33704) | DRSC03494
5 | inactive | Panx (GeneID 37434) | DRSC04563
6 | inactive | CG34140 + Mkp | DRSC26000
7 | inactive | Cad86C (GeneID 41302) | DRSC15587
12 | inactive | Cad86C (GeneID 41302) | DRSC15611
3 | inactive | Cad86C (GeneID 41302) | DRSC27602
11 | inactive | Cad86C (GeneID 41302) | DRSC28094
5 | inactive | CG15278 (GeneID 34865) | DRSC02481
12 | inactive | mthl13 (GeneID 246395) | DRSC05238
7 | inactive | CG32700 (GeneID 31896) | DRSC17857
7 | inactive | CG32700 (GeneID 31896) | DRSC17858
5 | inactive | COX6AL2 (GeneID 40066) | DRSC10082
7 | inactive | Ir93a (GeneID 42471) | DRSC15212
9 | inactive | Ir93a (GeneID 42471) | DRSC15213
6 | inactive | Ir93a (GeneID 42471) | DRSC28149
11 | inactive | CG33722 + CG18749 | DRSC12674
7 | inactive | CG33722 + CG18749 | DRSC15386
1 | inactive | CG33722 + CG18749 | DRSC28983
6 | inactive | a6 (GeneID 31127) | DRSC18733
6 | inactive | CG4709 (GeneID 34324) | DRSC02772
6 | inactive | TfIIEalpha (GeneID 39313) | DRSC11303
10 | inactive | TfIIEalpha (GeneID 39313) | DRSC27748
2 | inactive | Mkk4 (GeneID 41020) | DRSC16739
4 | inactive | Mkk4 (GeneID 41020) | DRSC29113
17 | inactive | prt (GeneID 117368) | DRSC16894
6 | inactive | mad2 (GeneID 38656) | DRSC10274
5 | inactive | CG3955 (GeneID 36438) | DRSC06859
5 | inactive | CG14085 (GeneID 40099) | DRSC10089
7 | inactive | CG15005 (GeneID 38506) | DRSC08459
4 | inactive | CG15005 (GeneID 38506) | DRSC26556
5 | inactive | nmdyn-D7 (GeneID 41174) | DRSC17016
6 | inactive | Trf (GeneID 34102) | DRSC03462
4 | inactive | CG31697 (GeneID 35243) | DRSC22273
7 | inactive | Fs(2)Ket (GeneID 35336) | DRSC03328
4 | inactive | Fs(2)Ket (GeneID 35336) | DRSC23439
11 | inactive | MED18 (GeneID 31140) | DRSC18549
3 | inactive | CG34229 (GeneID 5740848) | DRSC06316
6 | inactive | SIDL (GeneID 41833) | DRSC16077
6 | inactive | jbug (GeneID 43997) | DRSC03952
5 | inactive | jbug (GeneID 43997) | DRSC04114
10 | inactive | jbug (GeneID 43997) | DRSC04167
6 | inactive | jbug (GeneID 43997) | DRSC04388
12 | inactive | jbug (GeneID 43997) | DRSC29978
– | inactive | beag (GeneID 41091) | DRSC15296
12 | inactive | CG12540 (GeneID 32393) | DRSC19471
7 | inactive | CG17261 (GeneID 33522) | DRSC00498
10 | inactive | LBR (GeneID 37482) | DRSC04298
5 | inactive | LBR (GeneID 37482) | DRSC29462
4 | inactive | Rim2 (GeneID 33350) | DRSC00520
1 | inactive | Rim2 (GeneID 33350) | DRSC22699
6 | inactive | CG31910 + snoRNA:Me28S-G2743 (retired record) | DRSC00946
6 | inactive | rswl (GeneID 37124) | DRSC06923
5 | inactive | Appl (GeneID 31002) | DRSC17728
9 | inactive | Appl (GeneID 31002) | DRSC27476
10 | inactive | Pdzd8 (GeneID 32157) | DRSC19355
7 | inactive | Pdzd8 (GeneID 32157) | DRSC23702
11 | inactive | Uba1 (GeneID 35998) | DRSC07567
16 | inactive | Uba1 (GeneID 35998) | DRSC28350
5 | inactive | Drice (GeneID 43514) | DRSC16715
3 | inactive | Drice (GeneID 43514) | DRSC27804
5 | inactive | PGAP2 (GeneID 33258) | DRSC00632
8 | inactive | PGAP2 (GeneID 33258) | DRSC28496
3 | inactive | CG1764 (GeneID 32281) | DRSC19779
3 | inactive | alpha-Est4aPsi (GeneID 3772290) | DRSC12473
5 | inactive | Kr-h2 (GeneID 33859) | DRSC03356
4 | inactive | Pex16 (GeneID 40293) | DRSC11750
3 | inactive | CAH15 (GeneID 37366) | DRSC04534
6 | inactive | CAH15 (GeneID 37366) | DRSC26087
2 | inactive | CG5397 (GeneID 33313) | DRSC00683
4 | inactive | CG5397 (GeneID 33313) | DRSC28535
7 | inactive | RpS23 (GeneID 36576) | DRSC07169
5 | inactive | RpS23 (GeneID 36576) | DRSC26313
7 | inactive | Or98P (GeneID 3772262) | DRSC22948
5 | inactive | Or98P (GeneID 3772262) | DRSC25899
7 | inactive | CG5509 (GeneID 41539) | DRSC15822
11 | inactive | rut (GeneID 32406) | DRSC22976
10 | inactive | CG17752 (GeneID 42337) | DRSC15262
5 | inactive | CG17752 (GeneID 42337) | DRSC26265
3 | inactive | mtSSB (GeneID 41968) | DRSC17005
3 | inactive | CG15169 (GeneID 35161) | DRSC02470
10 | inactive | Amun (GeneID 32123) | DRSC19847
5 | inactive | Amun (GeneID 32123) | DRSC28058
12 | inactive | Syp (GeneID 42460) | DRSC13444
5 | inactive | Syp (GeneID 42460) | DRSC15286
6 | inactive | Syp (GeneID 42460) | DRSC29126

12 entries already listed, sorted by “mitotic cells, replicate 1”, highest first.
mitotic cells, replicate 1 | call | Gene | DRSC id
17 | inactive | prt (GeneID 117368) | DRSC16894
7 | inactive | CG15005 (GeneID 38506) | DRSC08459
7 | inactive | Fs(2)Ket (GeneID 35336) | DRSC03328
6 | inactive | mad2 (GeneID 38656) | DRSC10274
6 | inactive | Trf (GeneID 34102) | DRSC03462
5 | inactive | CG3955 (GeneID 36438) | DRSC06859
5 | inactive | CG14085 (GeneID 40099) | DRSC10089
5 | inactive | nmdyn-D7 (GeneID 41174) | DRSC17016
4 | inactive | Mkk4 (GeneID 41020) | DRSC29113
4 | inactive | CG15005 (GeneID 38506) | DRSC26556
4 | inactive | CG31697 (GeneID 35243) | DRSC22273
4 | inactive | Fs(2)Ket (GeneID 35336) | DRSC23439
